{"source": "paper PMC7197710", "binders": {"B1": {"name": "peroxisome proliferator activated receptor γ coactivator-1α (PGC1α) (protein, UniProt O70343 1-797)", "chain": "MAWDMCSQDSVWSDIECAALVGEDQPLCPDLPELDLSELDVNDLDTDSFLGGLKWCSDQSEIISNQYNNEPANIFEKIDEENEANLLAVLTETLDSLPVDEDGLPSFDALTDGAVTTDNEASPSSMPDGTPPPQEAEEPSLLKKLLLAPANTQLSYNECSGLSTQNHAANHTHRIRTNPAIVKTENSWSNKAKSICQQQKPQRRPCSELLKYLTTNDDPPHTKPTENRNSSRDKCASKKKSHTQPQSQHAQAKPTTLSLPLTPESPNDPKGSPFENKTIERTLSVELSGTAGLTPPTTPPHKANQDNPFKASPKLKPSCKTVVPPPTKRARYSECSGTQGSHSTKKGPEQSELYAQLSKSSGLSRGHEERKTKRPSLRLFGDHDYCQSLNSKTDILINISQELQDSRQLDFKDASCDWQGHICSSTDSGQCYLRETLEASKQVSPCSTRKQLQDQEIRAELNKHFGHPCQAVFDDKSDKTSELRDGDFSNEQFSKLPVFINSGLAMDGLFDDSEDESDKLSYPWDGTQPYSLFDVSPSCSSFNSPCRDSVSPPKSLFSQRPQRMRSRSRSFSRHRSCSRSPYSRSRSRSPGSRSSSRSCYYYESSHYRHRTHRNSPLYVRSRSRSPYSRRPRYDSYEAYEHERLKRDEYRKEHEKRESERAKQRERQKQKAIEERRVIYVGKIRPDTTRTELRDRFEVFGEIEECTVNLRDDGDSYGFITYRYTCDAFAALENGYTLRRSNETDFELYFCGRKQFFKSNYADLDTNSDDFDPASTKSKYDSLDFDSLLKEAQRSLRR"}}, "molecular_target": "T1, hepatocyte nuclear factor-4α (HNF4α) (mouse (endogenous in BALB/c lung tissue)) (UniProt P49698)", "T1 sequence": "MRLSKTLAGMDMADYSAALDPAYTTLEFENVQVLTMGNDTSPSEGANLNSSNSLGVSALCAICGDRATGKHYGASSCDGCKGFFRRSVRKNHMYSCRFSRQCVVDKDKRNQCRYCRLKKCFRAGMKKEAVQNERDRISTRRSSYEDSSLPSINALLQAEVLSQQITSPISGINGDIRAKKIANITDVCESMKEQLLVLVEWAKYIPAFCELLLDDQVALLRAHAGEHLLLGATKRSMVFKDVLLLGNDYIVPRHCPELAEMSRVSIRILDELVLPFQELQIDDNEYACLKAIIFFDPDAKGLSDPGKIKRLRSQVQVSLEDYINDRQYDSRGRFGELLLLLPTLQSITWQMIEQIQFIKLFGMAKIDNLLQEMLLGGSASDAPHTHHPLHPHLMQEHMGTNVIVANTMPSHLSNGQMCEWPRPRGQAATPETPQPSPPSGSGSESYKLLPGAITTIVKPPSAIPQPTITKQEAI", "assay": "co-IP; 250 µg nuclear protein from lung tissue of IUGR mice (OVA or PBS induction) incubated overnight at 4°C with 2 µg mouse anti-HNF4α antibody (normal mouse IgG as control), Protein G agarose beads, five washes with 0.1% NP40/PBS; immunoblot with rabbit anti-PGC1α antibody", "note": "No constants are given. Whether binding was seen depends on the method and setting. In cells and extracts the contact can be indirect. Some results given as binding are weak or reduced against the parent protein; the word gives no strength.", "data": [{"binder": "B1", "values": [{"measurement": "binding", "value": "binds"}]}]}
